According to patent publication US20090203877A1 (Eberhard-Karls-Universitaet Tuebingen Universitaetsklinkum, priority 2006, published 2009):
Strings that start with PEPTIDE1 are HELM notation: dots part the residues, brackets hold end groups and non-standard residues.

Test: general procedure: Fmoc solid-phase peptide synthesis; Fmoc Rink Amid Tentagel SRAM (0.25 mM/g) (Rapp Polymere); TBTU + diisopropylethylamine
Conditions: whole synthesis, analytical HPLC and ESI/MS

Substance	final HPLC purity
PEPTIDE1{P.K.K.K.R.K.V.K.G.G.K.P.L.G.V.R.K.[am]}|PEPTIDE2{[FITC5]}|PEPTIDE3{[TIBA]}|PEPTIDE4{[TIBA]}$PEPTIDE1,PEPTIDE2,8:R3-1:R2|PEPTIDE1,PEPTIDE3,11:R3-1:R2|PEPTIDE1,PEPTIDE4,17:R3-1:R2$$$V2.0	purity at least 98%
PEPTIDE1{[TIBA].P.K.K.K.R.K.V.K.G.G.K.[am]}|PEPTIDE2{[FITC5]}$PEPTIDE1,PEPTIDE2,9:R3-1:R2$$$V2.0	at least 98%
